The target in this experiment is T1, c-Met (UniProt P08581 25-932, limits assumed).
T1 construct: also called HGF receptor
Description: phage ELISA on coated c-Met, anti-M13 HRP detection. (In general: ELISA stands for enzyme-linked immunosorbent assay.)

The chains behind the UniProt entries cited, without tags or fusion partners. Residues count along the entry.
UniProt P08581, residues 25-932: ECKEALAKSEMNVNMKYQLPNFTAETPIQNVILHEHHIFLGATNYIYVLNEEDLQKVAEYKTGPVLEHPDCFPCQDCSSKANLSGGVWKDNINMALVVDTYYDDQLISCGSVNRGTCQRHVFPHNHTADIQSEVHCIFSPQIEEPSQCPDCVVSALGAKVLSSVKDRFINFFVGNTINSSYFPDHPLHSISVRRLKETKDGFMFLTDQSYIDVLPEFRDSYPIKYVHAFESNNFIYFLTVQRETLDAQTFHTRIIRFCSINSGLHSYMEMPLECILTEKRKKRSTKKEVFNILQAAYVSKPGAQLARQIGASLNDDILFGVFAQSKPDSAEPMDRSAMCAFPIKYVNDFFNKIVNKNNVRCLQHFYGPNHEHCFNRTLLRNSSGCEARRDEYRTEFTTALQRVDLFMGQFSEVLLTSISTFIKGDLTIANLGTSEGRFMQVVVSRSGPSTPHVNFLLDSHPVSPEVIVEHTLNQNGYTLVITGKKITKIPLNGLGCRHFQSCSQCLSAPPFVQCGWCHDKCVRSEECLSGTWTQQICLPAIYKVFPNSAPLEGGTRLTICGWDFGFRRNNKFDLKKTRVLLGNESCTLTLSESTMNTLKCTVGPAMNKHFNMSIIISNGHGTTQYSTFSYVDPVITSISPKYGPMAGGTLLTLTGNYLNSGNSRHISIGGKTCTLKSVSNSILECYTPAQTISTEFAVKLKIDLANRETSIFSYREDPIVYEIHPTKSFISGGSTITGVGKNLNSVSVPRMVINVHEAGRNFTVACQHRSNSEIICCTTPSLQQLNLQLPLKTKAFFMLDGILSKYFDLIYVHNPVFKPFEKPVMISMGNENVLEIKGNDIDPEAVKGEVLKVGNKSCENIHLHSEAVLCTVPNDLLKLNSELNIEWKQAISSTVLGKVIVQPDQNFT

No constants are given. Whether binding was seen depends on the method and setting. Some entries that bind do so weakly or less than the wild type.

On to HHPHFKPVSNSR [phage containing the peptide of SEQ ID NO: 32], for which the binding result was “binds”.

On to KSLSRHDHIHHH [phage containing the peptide of SEQ ID NO: 33], for which the binding entry is recorded as “binds”.

These data come from patent publication US20070036789A1 (NATIONAL CANCER CENTER, published 2007).
